Test results from US20230271965A1, “BICYCLIC HETEROARENES AND METHODS OF THEIR USE” (Kineta, Inc., priority 2020, published 2023).

By UniProt entry, the sequences of proteins in these tests, tags left out.
UniProt Q9Y2I7, whole entry S696N/L932S/Q995L/T998S/S1033A/Q1183K: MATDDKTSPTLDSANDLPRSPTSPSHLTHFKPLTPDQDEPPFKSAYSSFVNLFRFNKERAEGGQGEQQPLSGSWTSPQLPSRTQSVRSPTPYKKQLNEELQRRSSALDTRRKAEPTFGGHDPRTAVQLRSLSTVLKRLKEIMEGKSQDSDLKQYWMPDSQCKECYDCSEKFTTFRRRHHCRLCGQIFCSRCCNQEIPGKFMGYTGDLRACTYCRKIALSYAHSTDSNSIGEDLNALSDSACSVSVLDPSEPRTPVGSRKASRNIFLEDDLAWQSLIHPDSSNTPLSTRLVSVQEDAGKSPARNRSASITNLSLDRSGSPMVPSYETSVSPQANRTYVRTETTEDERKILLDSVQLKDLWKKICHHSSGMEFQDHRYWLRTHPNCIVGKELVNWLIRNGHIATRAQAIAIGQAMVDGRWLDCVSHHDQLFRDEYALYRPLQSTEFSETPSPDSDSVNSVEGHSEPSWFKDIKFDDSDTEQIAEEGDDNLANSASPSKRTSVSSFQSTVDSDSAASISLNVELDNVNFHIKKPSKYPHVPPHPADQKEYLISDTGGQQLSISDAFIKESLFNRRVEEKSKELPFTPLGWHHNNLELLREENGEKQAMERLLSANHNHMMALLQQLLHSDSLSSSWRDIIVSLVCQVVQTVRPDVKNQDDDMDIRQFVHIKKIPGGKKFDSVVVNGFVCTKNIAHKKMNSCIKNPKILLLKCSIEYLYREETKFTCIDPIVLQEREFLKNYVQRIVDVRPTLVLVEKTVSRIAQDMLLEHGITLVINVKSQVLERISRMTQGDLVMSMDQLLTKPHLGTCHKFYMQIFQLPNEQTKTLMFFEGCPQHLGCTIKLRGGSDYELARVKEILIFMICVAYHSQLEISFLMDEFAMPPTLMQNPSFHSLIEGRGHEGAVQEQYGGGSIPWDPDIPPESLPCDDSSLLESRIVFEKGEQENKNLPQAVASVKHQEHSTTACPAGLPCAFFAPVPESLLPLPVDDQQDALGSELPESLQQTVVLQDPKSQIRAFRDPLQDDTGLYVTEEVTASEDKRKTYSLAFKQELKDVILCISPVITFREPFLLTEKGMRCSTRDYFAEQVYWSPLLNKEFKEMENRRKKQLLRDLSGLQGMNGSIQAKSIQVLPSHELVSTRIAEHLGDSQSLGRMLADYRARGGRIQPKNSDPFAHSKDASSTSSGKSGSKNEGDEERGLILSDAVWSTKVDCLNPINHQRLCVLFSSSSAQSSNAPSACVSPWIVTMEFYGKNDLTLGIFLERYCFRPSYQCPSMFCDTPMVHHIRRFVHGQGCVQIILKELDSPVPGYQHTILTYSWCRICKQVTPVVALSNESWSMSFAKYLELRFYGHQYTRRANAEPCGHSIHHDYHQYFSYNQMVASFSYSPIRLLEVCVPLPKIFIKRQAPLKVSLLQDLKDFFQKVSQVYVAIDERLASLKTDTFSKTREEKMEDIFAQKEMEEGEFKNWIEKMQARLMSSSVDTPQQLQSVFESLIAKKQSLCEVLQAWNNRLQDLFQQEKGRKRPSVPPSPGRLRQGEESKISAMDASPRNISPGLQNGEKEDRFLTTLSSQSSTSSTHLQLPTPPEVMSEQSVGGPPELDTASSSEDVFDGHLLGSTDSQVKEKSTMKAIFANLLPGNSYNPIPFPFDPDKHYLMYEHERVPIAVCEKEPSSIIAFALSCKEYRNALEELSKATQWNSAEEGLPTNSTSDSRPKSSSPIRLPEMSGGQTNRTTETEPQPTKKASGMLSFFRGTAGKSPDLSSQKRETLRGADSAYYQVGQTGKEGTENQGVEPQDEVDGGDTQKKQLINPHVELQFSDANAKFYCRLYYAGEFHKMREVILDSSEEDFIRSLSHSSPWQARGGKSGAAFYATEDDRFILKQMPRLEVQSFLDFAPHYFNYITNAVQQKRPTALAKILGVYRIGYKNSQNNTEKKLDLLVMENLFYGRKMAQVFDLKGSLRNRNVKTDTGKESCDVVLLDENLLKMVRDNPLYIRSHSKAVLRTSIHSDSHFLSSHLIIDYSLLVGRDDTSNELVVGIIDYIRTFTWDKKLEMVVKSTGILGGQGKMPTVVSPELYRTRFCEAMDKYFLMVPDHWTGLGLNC

Molecular target: full-length human PIKFYVE (GST-PIKFYVE) (Homo sapiens, UniProt Q9Y2I7, L932S/Q1183K/Q995L/S1033A/S696N/T998S)
Test: PIKfyve biochemical assay (ADP-Glo Kinase assay, Carna Biosciences)
Conditions: read-out: hPIKfyve IC50

Q: How did the IC50 turn out when `Fc1cccc(N2CCc3c(OCc4cccnc4)nc(N4CCOCC4)nc32)c1` was run?
A: The IC50 was 10 to 100 nM.

Structures were worked out from names or drawings and are uncertain.
